Measurements reported in PubChem BioAssay AID1259405 (NCATS, 2018)
Shown is a random part of about 50,000 reagents. About 4,000 of them (8%) were called active. 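Mouse siRNA library applied to hamster cells; one well for each siRNA.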 A number with no mark means an inactive call. Reagents against one gene are numbered here.

Aim: 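Mouse-designed siRNAs used to find CHO productivity engineering targets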 (primary screen)
Cell system: Chinese hamster CHO-K1 ovary cells with stable secreted eGFP expression
Knock-down reagent: single siRNA against mouse genes, 0.8 pmol siRNA per well (2 µl of 400 nM stock)
Time to read-out: 3 days
Measured: 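Percent of the per-plate non-targeting control median for intracellular GFP per well by laser scanning cytometry and for cell viability by ATP luminescence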
Reading the numbers: GFP, % of control: higher = more GFP per well, higher productivity; viability (ATP), % of control: higher = more viable cells (more ATP)
Call rule: 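a knock-down is called active if GFP reaches 120% or more of non-targeting control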

GFP, % of control | viability (ATP), % of control | gene knocked down | reagent no.
102 | 97.3 | Ss18l1 | 1
112 | 101 | Ss18l1 | 2
63.3 | 43.2 | Or5h24-ps1 | 1
143 (active) | 72.9 | Or5h24-ps1 | 2
55.2 | 88.2 | Or5h24-ps1 | 3
84.6 | 113 | Phtf2 | 1
77.3 | 95.4 | Phtf2 | 2
64 | 78.6 | Phtf2 | 3
88.8 | 71.7 | Slitrk5 | 1
59.1 | 76.5 | Slitrk5 | 2
51.4 | 47.8 | Slitrk5 | 3
38.4 | 71.8 | Mre11a | 1
78.9 | 80.9 | Mre11a | 2
72.5 | 70.3 | Mre11a | 3
83.8 | 104 | Gria4 | 1
38.8 | 65.9 | Gria4 | 2
75.7 | 66.7 | Gria4 | 3
52.7 | 50.9 | Cwc15 | 1
70.9 | 56.5 | Cwc15 | 2
62.3 | 29.4 | Cwc15 | 3
37.7 | 33 | Anapc7 | 1
63.7 | 71.6 | Anapc7 | 2
131 (active) | 91 | Anapc7 | 3
71.7 | 84.6 | Il23r | 1
74.7 | 65.2 | Il23r | 2
78.4 | 62.2 | Il23r | 3
140 (active) | 68.7 | Atf7ip | 1
72.5 | 80.7 | Atf7ip | 2
49.9 | 44.9 | Atf7ip | 3
61.3 | 64.1 | Trir | 1
74.5 | 71.5 | Trir | 2
56.8 | 65.3 | Trir | 3
78 | 71.1 | Or7g25 | 1
61.3 | 47.7 | Or7g25 | 2
66.4 | 76.1 | Or7g25 | 3
106 | 118 | Slc34a1 | 1
60.6 | 27.5 | Slc34a1 | 2
95.9 | 90.4 | Slc34a1 | 3
67.1 | 68.5 | Hmx2 | 1
75.9 | 84.3 | Hmx2 | 2
40.9 | 49.5 | Hmx2 | 3
94.3 | 47.7 | Vipas39 | 1
114 | 102 | Vipas39 | 2
96.3 | 138 | Vipas39 | 3
77.1 | 102 | Slc17a5 | 1
66.7 | 90.6 | Slc17a5 | 2
57.6 | 66.8 | Slc17a5 | 3
98.2 | 70.2 | Gdf5 | 1
121 (active) | 99.8 | Gdf5 | 2
84.2 | 109 | Gdf5 | 3
66 | 47.8 | Arl9 | 1
39.6 | 61.5 | Arl9 | 2
79.2 | 69.9 | Arl9 | 3
76.1 | 73.1 | Thap12 | 1
106 | 85.5 | Thap12 | 2
49.4 | 63.1 | Timm10b | 1
94.2 | 75.2 | Timm10b | 2
49.7 | 78.3 | Tmem176b | 1
58.9 | 99.7 | Tmem176b | 2
92.2 | 65.9 | Tmem176b | 3
65 | 83.6 | Foxd2 | 1
77.6 | 78.8 | Foxd2 | 2
78.5 | 58.6 | Pfkl | 1
62.5 | 56.7 | Pfkl | 2
108 | 77.5 | Pfkl | 3
77.3 | 105 | Mep1a | 1
44.7 | 60.2 | Mep1a | 2
81.8 | 61.8 | Mep1a | 3
153 (active) | 92.1 | Tusc2 | 1
84.7 | 71.1 | Tusc2 | 2
75.5 | 84.6 | Tusc2 | 3
135 (active) | 102 | Sfr1 | 1
118 | 89.3 | Sfr1 | 2
111 | 153 | Sfr1 | 3
103 | 103 | Trpd52l3 | 1
81.5 | 83.5 | Trpd52l3 | 2
71.3 | 97.5 | Trpd52l3 | 3
57.2 | 103 | Vtn | 1
77.3 | 85.4 | Vtn | 2
40.4 | 34.4 | Fhl2 | 1
77.3 | 57.8 | Fhl2 | 2
78.4 | 91.2 | Fhl2 | 3
137 (active) | 174 | Ppp1r37 | 1
66.7 | 53.6 | Ppp1r37 | 2
153 (active) | 115 | Ppp1r37 | 3
64.9 | 63.9 | Glod4 | 1
86.5 | 67.7 | Glod4 | 2
69.2 | 82.3 | Glod4 | 3
79.5 | 71.1 | Itpkc | 1
104 | 58.8 | Tuba3b | 1
103 | 70.4 | Tuba3b | 2
83.5 | 66.9 | Cep19 | 1
61.7 | 69.6 | Cep19 | 2
104 | 77.6 | Cep19 | 3
108 | 92.7 | Aldh6a1 | 1
71.5 | 76.6 | Aldh6a1 | 2
104 | 77.3 | Aldh6a1 | 3
45 | 62.1 | Ncam1 | 1
44.3 | 76.4 | Ncam1 | 2
105 | 109 | Ncam1 | 3
26.6 | 39.8 | Casp7 | 1
93.4 | 78.8 | Casp7 | 2
66.7 | 81.2 | Casp7 | 3
99.4 | 89.1 | Or5p63 | 1
66.4 | 77.6 | Or5p63 | 2
59.4 | 73.6 | Or5p63 | 3
108 | 103 | Fkbp11 | 1
131 (active) | 108 | Fkbp11 | 2
67.2 | 71.4 | Fkbp11 | 3

A stretch of the results above, for reference:
GFP, % of control | viability (ATP), % of control | gene knocked down | reagent no.
143 (active) | 72.9 | Or5h24-ps1 | 2
55.2 | 88.2 | Or5h24-ps1 | 3
84.6 | 113 | Phtf2 | 1
77.3 | 95.4 | Phtf2 | 2
64 | 78.6 | Phtf2 | 3
88.8 | 71.7 | Slitrk5 | 1
59.1 | 76.5 | Slitrk5 | 2
51.4 | 47.8 | Slitrk5 | 3
38.4 | 71.8 | Mre11a | 1
78.9 | 80.9 | Mre11a | 2
72.5 | 70.3 | Mre11a | 3
83.8 | 104 | Gria4 | 1
38.8 | 65.9 | Gria4 | 2
75.7 | 66.7 | Gria4 | 3
52.7 | 50.9 | Cwc15 | 1
70.9 | 56.5 | Cwc15 | 2
62.3 | 29.4 | Cwc15 | 3
37.7 | 33 | Anapc7 | 1
